Experimental data reported in patent publication US20120100139A1 (APTEVO RESEARCH AND DEVELOPMENT, published 2012).
No constants are given. Whether binding was seen depends on the method and setting. Some entries that bind do so weakly or less than the wild type.

Chains of the proteins cited; added tags and fusions are not shown. Residues count along the entry.
UniProt P42081, residues 24-247: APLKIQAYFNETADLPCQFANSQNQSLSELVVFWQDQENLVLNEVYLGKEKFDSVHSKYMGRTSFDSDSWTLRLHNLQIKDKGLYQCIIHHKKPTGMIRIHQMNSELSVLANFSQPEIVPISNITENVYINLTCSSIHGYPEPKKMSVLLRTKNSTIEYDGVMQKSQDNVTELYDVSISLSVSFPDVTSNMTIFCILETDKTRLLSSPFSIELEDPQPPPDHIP

Target: CD86-mIgG (Ancell, Inc) (UniProt P42081)
Assay: SPR, CD86-mIgG immobilized

binding: binds
B1: FUN1 mAb (parent murine anti-CD86 monoclonal antibody) (antibody, V domains shown)
VH: EVQLQQSGPELEKPGASVKISCKASGYSFTDYNMNWVKQSNGKSLEWIGNIDPYYGGTSYNQKFKGKATLTVDKSSSTAYMQLNSLTSEDSAVYFCARWDYRYDDGRAYYVMDFWGQGTSVTVSS
VL: ELQMTQSPSSLAASAGEKVTMSCKSSQSVLYSSNQKNYLAWYQQKPGQSPKLLIYWASTRESGVPDRFTGSGSGTHFTLTVSSVQAEDLAVYYCHQYLYSWTFGGGTNLEIKR
notes: Murine monoclonal antibody; also called FUN1 antibody
